Laboratory results reported in the supplement of paper PMC4604168 (melanoma cell lines).
The list shows a part of the results. Single values are uncertain, as repeats are few or missing.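 Imaging used 1,536-well plates; nuclei positive for cleaved PARP by antibody were divided by total DNA-stained nuclei to yield the apoptosis fraction. Doses for screening kept most cells viable, and cell lines differ markedly in resting and induced cleaved-PARP levels.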

Tests used:
Test in all cases: cleaved PARP positive nuclei fraction relative to DMSO control; melanoma cells; higher = more apoptosis
Settings in all cases: library dose: low library concentration; 72 h
[1] = tested on: 501Mel
[2] = tested on: A101D
[3] = tested on: A2058
[4] = tested on: C32
[5] = tested on: CBRC008 (line from a melanoma biopsy)
[6] = tested on: CBRC014 (line from a melanoma biopsy)
[7] = tested on: CBRC016 (line from a melanoma biopsy)
[8] = tested on: CBRC017 (line from a melanoma biopsy)
[9] = tested on: COLO792
[10] = tested on: COLO800
[11] = tested on: COLO829
[12] = tested on: G361
[13] = tested on: IPC-298
[14] = tested on: IST-MEL1
[15] = tested on: LB2518-MEL
[16] = tested on: LOXIMVI

Row | SMILES | cleaved PARP positive nuclei fraction [1] [%] | cleaved PARP positive nuclei fraction [2] [%] | cleaved PARP positive nuclei fraction [3] [%] | cleaved PARP positive nuclei fraction [4] [%] | cleaved PARP positive nuclei fraction [5] [%] | cleaved PARP positive nuclei fraction [6] [%] | cleaved PARP positive nuclei fraction [7] [%] | cleaved PARP positive nuclei fraction [8] [%] | cleaved PARP positive nuclei fraction [9] [%] | cleaved PARP positive nuclei fraction [10] [%] | cleaved PARP positive nuclei fraction [11] [%] | cleaved PARP positive nuclei fraction [12] [%] | cleaved PARP positive nuclei fraction [13] [%] | cleaved PARP positive nuclei fraction [14] [%] | cleaved PARP positive nuclei fraction [15] [%] | cleaved PARP positive nuclei fraction [16] [%]
1 | Cc1cc(Nc2cc(N3CCN(C)CC3)nc(/C=C/c3ccccc3)n2)n[nH]1 + Oc1cc(-c2nc(-c3ccccc3)[nH]c2-c2ccncc2)ccc1Cl [L779450] (first compound 0.04 µM, partner dose 0.2 µM) | 166 | 68.7 | 73.1 | 82.6 | 62.4 | 102 | 61.2 | 68.5 | 79.9 | 78.6 | 77 | 80.7 | 48.4 | 141 | 75.3 | 39.8
2 | CN1CCN(c2ccc3nc(-c4c(N)c5c(F)cccc5[nH]c4=O)[nH]c3c2)CC1 [Dovitinib] + CCc1ccc(CCOc2ccc(CC3SC(=O)NC3=O)cc2)nc1 [pioglitazone] (first compound 0.1 µM, partner dose 2 µM) | 145 | 29.7 | 182 | 164 | 138 | 90.5 | 78 | 269 | 107 | 129 | 71.6 | 140 | 292 | 223 | 83 | 96.5
3 | CCCS(=O)(=O)Nc1ccc(F)c(C(=O)c2c[nH]c3ncc(Cl)cc23)c1F + COc1ccc2c(c1)CCC1C2CCC2(C)C(NCCCCCCN3C(=O)C=CC3=O)CCC12 [U73122] (first compound 0.08 µM, partner dose 0.4 µM) | 33.7 | 19.5 | 100 | 188 | 30 | 122 | 41.6 | 58 | 115 | 221 | 46.4 | 180 | 47.8 | 221 | 64.7 | 40.9
4 | Nc1ncn([C@H]2C[C@H](O)[C@@H](CO)O2)c(=O)n1 [decitabine] + O=C(Nc1ccccc1)c1cc([N+](=O)[O-])ccc1Cl [GW9662] (first compound 0.1 µM, partner dose 2 µM) | 177 | 55.3 | 283 | 81.6 | 166 | 1100 | 109 | 119 | 146 | 51.7 | 216 | 143 | 182 | 94.4 | 143 | 41.7
5 | CS(=O)(=O)CCNCc1ccc(-c2ccc3ncnc(Nc4ccc(OCc5cccc(F)c5)c(Cl)c4)c3c2)o1 [lapatinib] + N#Cc1c(O)c2c(-c3ccc(-c4ccccc4O)cc3)csc2[nH]c1=O [A769662] (first compound 0.8 µM, partner dose 2 µM) | 59 | 49.9 | 120 | 168 | 139 | 108 | 34.9 | 75 | 33.8 | 116 | 74.8 | 69.2 | 48 | 108 | 71.8 | 164
6 | CCCS(=O)(=O)Nc1ccc(F)c(C(=O)c2c[nH]c3ncc(Cl)cc23)c1F + O=C(O)C(=O)Nc1sc2c(c1C(=O)O)CCNC2 [TCS401] (first compound 0.08 µM, partner dose 1.66667 µM) | 59.2 | 70.5 | 87 | 47.7 | 78.4 | 93.3 | 43.8 | 85.1 | 88.6 | 138 | 148 | 122 | 132 | 110 | 65.9 | 186
7 | CCCS(=O)(=O)Nc1ccc(F)c(C(=O)c2c[nH]c3ncc(Cl)cc23)c1F + Oc1nc(-c2ccc(C(F)(F)F)cc2)nc2c1CSCC2 [XAV939] (first compound 0.08 µM, partner dose 2 µM) | 69.9 | 14.5 | 65.6 | 169 | 108 | 112 | 20.4 | 75 | 138 | 39.7 | 38.1 | 83.2 | 99.8 | 249 | 64.3 | 306
8 | Nc1nc(F)nc2c1ncn2[C@@H]1O[C@H](CO)[C@@H](O)[C@@H]1O [fludarabine] + COc1cc(N2CCC(N3CCN(C)CC3)CC2)ccc1Nc1ncc(Cl)c(Nc2ccccc2S(=O)(=O)C(C)C)n1 [NVP-TAE684] (first compound 0.2 µM, partner dose 0.08 µM) | 796 | 28.9 | 264 | 93.9 | 122 | 85.8 | 32 | 91.8 | 73.9 | 92.3 | 163 | 74.1 | 62 | 117 | 61.8 | 56.7
9 | Cn1c(=O)n(-c2ccc(C(C)(C)C#N)cc2)c2c3cc(-c4cnc5ccccc5c4)ccc3ncc21 + CCN(CC)CCCCNc1ncc2cc(-c3cc(OC)cc(OC)c3)c(NC(=O)NC(C)(C)C)nc2n1 [PD173074] (first compound 0.004 µM, partner dose 0.1 µM) | 84.9 | 9.3 | 115 | 154 | 90 | 95.2 | 71.6 | 178 | 194 | 197 | 90.8 | 125 | 44.1 | 76.7 | 66.9 | 165
10 | CS(=O)(=O)CCNCc1ccc(-c2ccc3ncnc(Nc4ccc(OCc5cccc(F)c5)c(Cl)c4)c3c2)o1 [lapatinib] + COc1ccc2c(c1)CCC1C2CCC2(C)C(NCCCCCCN3C(=O)C=CC3=O)CCC12 [U73122] (first compound 0.8 µM, partner dose 0.4 µM) | 248 | 21.6 | 68.1 | 73.4 | 257 | 152 | 178 | 180 | 112 | 133 | 131 | 69.9 | 144 | 160 | 47 | 127
11 | CNC(=O)c1cc(Oc2ccc(NC(=O)Nc3ccc(Cl)c(C(F)(F)F)c3)cc2)ccn1 [sorafenib] + O=C(O)C(=O)Nc1sc2c(c1C(=O)O)CCNC2 [TCS401] (first compound 0.4 µM, partner dose 1.66667 µM) | 307 | 18.1 | 89.3 | 81.2 | 143 | 77.5 | 79.5 | 169 | 63.2 | 122 | 88.7 | 90.3 | 63.8 | 435 | 31.9 | 166
12 | O=C(O)[C@@H]1[O][Sb](=[O])([O][Sb]2(=[O])[O][C@H]([C@H](O)CO)[C@H](O)[C@H](C(=O)O)[O]2)[O][C@H]([C@H](O)CO)[C@@H]1O (stereo partly drawn) [stibogluconate] + c1cc(-c2cnn3cc(-c4ccc(OCCN5CCCCC5)cc4)cnc23)ccn1 [Dorsomorphin] (first compound 2 µM, partner dose 0.4 µM) | 138 | 5.53 | 111 | 221 | 78.5 | 104 | 30.3 | 308 | 67.4 | 106 | 82.8 | 59.2 | 94.2 | 16.7 | 62.9 | 70.7
13 | C[C@@H](Oc1cc(-c2cnn(C3CCNCC3)c2)cnc1N)c1c(Cl)ccc(F)c1Cl [Crizotinib] + COc1ccc(COc2ccc(Cc3cnc(N)nc3N)cc2OC)cc1 [GW2580] (first compound 0.2 µM, partner dose 1 µM) | 31.6 | 16.7 | 136 | 39.4 | 65.1 | 85.6 | 68.1 | 78.7 | 87.4 | 88.8 | 36.1 | 64.5 | 125 | 91.3 | 36.8 | 92.9
14 | Cc1cc(Nc2cc(N3CCN(C)CC3)nc(/C=C/c3ccccc3)n2)n[nH]1 + O=S(=O)(c1ccccc1)N(CC(F)(F)F)c1ccc(C(O)(C(F)(F)F)C(F)(F)F)cc1 [T0901317] (first compound 0.04 µM, partner dose 1.4 µM) | 153 | 36.6 | 15.5 | 86.5 | 167 | 112 | 40.2 | 121 | 114 | 202 | 53.5 | 80.7 | 134 | 137 | 71.7 | 84.6
15 | C=C(c1ccc(C(=O)O)cc1)c1cc2c(cc1C)C(C)(C)CCC2(C)C [Bexarotene] + Cc1cc([N+](=O)[O-])ccc1NS(=O)(=O)c1cc(Cl)ccc1Cl [FH535] (first compound 2 µM, partner dose 1 µM) | 70.1 | 41.5 | 84.2 | 73.8 | 339 | 173 | 427 | 180 | 68.1 | 80.6 | 90.6 | 170 | 53.4 | 64.1 | 74.2 | 99.7
16 | CO[C@H]1C[C@@H]2CC[C@@H](C)[C@@](O)(O2)C(=O)C(=O)N2CCCC[C@H]2C(=O)O[C@H]([C@H](C)C[C@@H]2CC[C@@H](OCCO)[C@H](OC)C2)CC(=O)[C@H](C)/C=C(\C)[C@@H](O)[C@@H](OC)C(=O)[C@H](C)C[C@H](C)/C=C/C=C/C=C/1C [everolimus] + N#Cc1c(O)c2c(-c3ccc(-c4ccccc4O)cc3)csc2[nH]c1=O [A769662] (first compound 0.02 µM, partner dose 2 µM) | 98.5 | 30 | 71.8 | 36 | 141 | 115 | 63.1 | 98.8 | 43.8 | 97.5 | 226 | 169 | 62.4 | 112 | 105 | 124
17 | Nc1ncn([C@H]2C[C@H](O)[C@@H](CO)O2)c(=O)n1 [decitabine] + COC(=O)c1sccc1S(=O)(=O)Nc1ccc(Nc2ccccc2)cc1OC [GSK0660] (first compound 0.1 µM, partner dose 1 µM) | 66.3 | 16.3 | 441 | 97.9 | 73 | 95.3 | 64.2 | 101 | 114 | 135 | 324 | 262 | 216 | 118 | 79.6 | 64.7
18 | CNC(=O)c1cc(Oc2ccc(NC(=O)Nc3ccc(Cl)c(C(F)(F)F)c3)cc2)ccn1 [sorafenib] + O=C(Nc1ccccc1)c1cc([N+](=O)[O-])ccc1Cl [GW9662] (first compound 0.4 µM, partner dose 2 µM) | 70 | 22.1 | 47.4 | 62.7 | 159 | 200 | 26.6 | 89.4 | 60.3 | 26.6 | 60.4 | 76 | 45.3 | 93.2 | 192 | 126

Only cleaved PARP positive nuclei fraction [5] [%], cleaved PARP positive nuclei fraction [16] [%] and cleaved PARP positive nuclei fraction [4] [%], for some of the entries so far:
Row,SMILES,cleaved PARP positive nuclei fraction [5] [%],cleaved PARP positive nuclei fraction [16] [%],cleaved PARP positive nuclei fraction [4] [%]
15,"C=C(c1ccc(C(=O)O)cc1)c1cc2c(cc1C)C(C)(C)CCC2(C)C [Bexarotene] + Cc1cc([N+](=O)[O-])ccc1NS(=O)(=O)c1cc(Cl)ccc1Cl [FH535] (first compound 2 µM, partner dose 1 µM)",339,99.7,73.8
16,"CO[C@H]1C[C@@H]2CC[C@@H](C)[C@@](O)(O2)C(=O)C(=O)N2CCCC[C@H]2C(=O)O[C@H]([C@H](C)C[C@@H]2CC[C@@H](OCCO)[C@H](OC)C2)CC(=O)[C@H](C)/C=C(\C)[C@@H](O)[C@@H](OC)C(=O)[C@H](C)C[C@H](C)/C=C/C=C/C=C/1C [everolimus] + N#Cc1c(O)c2c(-c3ccc(-c4ccccc4O)cc3)csc2[nH]c1=O [A769662] (first compound 0.02 µM, partner dose 2 µM)",141,124,36
